Among the data in paper PMC8445599 are binding values, retold here.

The chains behind the UniProt entries cited, without tags or fusion partners. Residues count along the entry.
UniProt P02545, residues 1-646: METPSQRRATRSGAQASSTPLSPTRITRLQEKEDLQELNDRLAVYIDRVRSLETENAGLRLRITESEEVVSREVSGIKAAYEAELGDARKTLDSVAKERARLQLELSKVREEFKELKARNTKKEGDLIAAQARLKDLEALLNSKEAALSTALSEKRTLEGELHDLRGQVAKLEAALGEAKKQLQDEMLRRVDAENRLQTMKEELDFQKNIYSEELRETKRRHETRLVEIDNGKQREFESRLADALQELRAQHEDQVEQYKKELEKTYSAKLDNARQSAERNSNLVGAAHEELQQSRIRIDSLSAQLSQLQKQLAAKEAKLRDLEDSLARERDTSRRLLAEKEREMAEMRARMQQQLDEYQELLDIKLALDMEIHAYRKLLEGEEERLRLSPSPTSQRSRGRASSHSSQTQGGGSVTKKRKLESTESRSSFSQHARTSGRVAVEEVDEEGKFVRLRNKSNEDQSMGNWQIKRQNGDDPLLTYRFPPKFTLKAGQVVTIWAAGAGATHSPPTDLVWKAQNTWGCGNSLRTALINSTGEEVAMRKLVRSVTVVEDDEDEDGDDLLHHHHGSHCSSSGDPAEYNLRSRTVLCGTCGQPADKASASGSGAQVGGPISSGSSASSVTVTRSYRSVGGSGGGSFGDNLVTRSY
UniProt P36873: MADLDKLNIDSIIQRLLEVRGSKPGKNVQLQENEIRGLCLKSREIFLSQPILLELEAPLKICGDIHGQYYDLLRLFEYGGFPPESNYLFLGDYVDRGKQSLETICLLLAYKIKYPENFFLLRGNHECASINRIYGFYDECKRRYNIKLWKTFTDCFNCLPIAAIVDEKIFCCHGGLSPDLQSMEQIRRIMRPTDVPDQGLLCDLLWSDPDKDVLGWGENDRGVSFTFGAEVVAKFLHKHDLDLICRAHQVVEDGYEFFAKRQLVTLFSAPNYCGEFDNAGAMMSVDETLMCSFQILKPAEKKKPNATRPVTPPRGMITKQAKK

Residue numbers refer to the chain shown, from its start. No constants are given. Whether binding was seen depends on the method and setting. In cells and extracts the contact can be indirect. Some entries that bind do so weakly or less than the wild type. For part of these data: Tags and fused reporters may be left off the sequences shown.

The target in experiment [1] is HA–lamin A (WT) (human) (UniProt P02545). Description: co-IP; 293FT cells co-transfected with HA–lamin A, FLAG–RepoMan–Ubc9 and CFP or CFP–SUMO-2 (Ubc9 fusion-directed SUMOylation); IP with anti-FLAG or anti-HA magnetic beads, 30 min 4°C; lysis buffer 20 mM HEPES pH 7.4, 150 mM NaCl, 0.5% NP-40, 20 mM N-ethylmaleimide; washes with 100 mM KCl added.
Experiment [2] concerns the target T1, RepoMan (endogenous) (human (endogenous in HeLa)) (UniProt Q69YH5).
T1 sequence: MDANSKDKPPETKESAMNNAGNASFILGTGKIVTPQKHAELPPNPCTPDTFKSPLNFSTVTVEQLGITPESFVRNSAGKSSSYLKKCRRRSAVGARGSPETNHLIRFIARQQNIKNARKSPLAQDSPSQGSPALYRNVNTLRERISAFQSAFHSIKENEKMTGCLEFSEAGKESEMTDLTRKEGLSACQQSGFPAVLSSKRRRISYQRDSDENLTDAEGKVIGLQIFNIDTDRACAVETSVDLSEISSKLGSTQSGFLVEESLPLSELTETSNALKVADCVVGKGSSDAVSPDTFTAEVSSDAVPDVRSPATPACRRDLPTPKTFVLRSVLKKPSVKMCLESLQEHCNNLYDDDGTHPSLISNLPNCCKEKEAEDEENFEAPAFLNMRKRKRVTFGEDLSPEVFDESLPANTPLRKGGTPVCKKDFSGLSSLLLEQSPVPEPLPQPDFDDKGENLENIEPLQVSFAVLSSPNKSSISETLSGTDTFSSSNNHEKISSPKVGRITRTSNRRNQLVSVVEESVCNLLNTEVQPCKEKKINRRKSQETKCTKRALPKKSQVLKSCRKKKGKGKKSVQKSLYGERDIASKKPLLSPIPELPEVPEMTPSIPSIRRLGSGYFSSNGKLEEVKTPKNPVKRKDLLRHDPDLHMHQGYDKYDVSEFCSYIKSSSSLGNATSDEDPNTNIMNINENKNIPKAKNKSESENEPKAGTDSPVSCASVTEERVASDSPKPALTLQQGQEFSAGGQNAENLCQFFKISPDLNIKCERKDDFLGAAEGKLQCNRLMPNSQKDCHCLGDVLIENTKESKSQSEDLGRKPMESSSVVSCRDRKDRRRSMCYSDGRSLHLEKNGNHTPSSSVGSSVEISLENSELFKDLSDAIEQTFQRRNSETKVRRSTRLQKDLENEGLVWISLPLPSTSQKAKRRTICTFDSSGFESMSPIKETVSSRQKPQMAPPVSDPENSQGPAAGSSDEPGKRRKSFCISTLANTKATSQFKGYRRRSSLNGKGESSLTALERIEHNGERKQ
The experiment in a line: co-IP; endogenous proteins; asynchronous HeLa cells; IP with anti-lamin A/C or anti-RepoMan antibody, western blot. A general note: In western blotting, separated proteins are transferred to a membrane and probed.

Experiment [3] has as its target T1, RepoMan (endogenous) (human (endogenous in HeLa)). The experiment in a line: co-IP; endogenous proteins; HeLa cells arrested in M phase (1 µg/ml nocodazole, 16 h); IP with anti-lamin A/C or anti-RepoMan antibody, western blot.
The target is the same in experiment [4]. Description: co-IP; endogenous proteins; HeLa cells arrested at the G1/S boundary (1.5 mM hydroxyurea, 16 h); IP with anti-lamin A/C or anti-RepoMan antibody, western blot.
The target of experiment [5] is T2, FLAG–RepoMan (WT) (human) (UniProt Q69YH5).
T2 sequence: T1 sequence
Description: co-IP; 293FT cells co-transfected with FLAG–RepoMan and Myc–PP1γ; IP with anti-FLAG antibody, blot with anti-FLAG and anti-Myc.

Experiment [6] deals with T3, FLAG–RepoMan(K762R) (human) (UniProt Q69YH5).
T3 sequence: T1 sequence with K762R
The description is as above.

On to “FLAG–RepoMan(WT)–Ubc9, non-SUMOylated (from UniProt Q69YH5 2-1023; P63279 2-158)”, for which the binding result in experiment [1] is recorded as “binds”.

Regarding “lamin A/C (endogenous) (from UniProt P02545 1-646)”, the binding entry in experiment [2] is “binds weakly”; in experiment [3], “binds”; in experiment [4] it was “binds weakly”.

Regarding “Myc–PP1γ (from UniProt P36873 1-323) (enzyme)”, the binding entry in experiment [5] and in experiment [6] was “binds” throughout.
